Results are percentages, as filed. The controls that fix the scale are not given in the record; negative values are as filed. Compounds were drawn at random from those tested, without regard to their results. A dash means the value is not listed here; it may have been measured.

Amino acid sequences for entries named in this document (tags omitted).
UniProt E9BF75, entry or part of it: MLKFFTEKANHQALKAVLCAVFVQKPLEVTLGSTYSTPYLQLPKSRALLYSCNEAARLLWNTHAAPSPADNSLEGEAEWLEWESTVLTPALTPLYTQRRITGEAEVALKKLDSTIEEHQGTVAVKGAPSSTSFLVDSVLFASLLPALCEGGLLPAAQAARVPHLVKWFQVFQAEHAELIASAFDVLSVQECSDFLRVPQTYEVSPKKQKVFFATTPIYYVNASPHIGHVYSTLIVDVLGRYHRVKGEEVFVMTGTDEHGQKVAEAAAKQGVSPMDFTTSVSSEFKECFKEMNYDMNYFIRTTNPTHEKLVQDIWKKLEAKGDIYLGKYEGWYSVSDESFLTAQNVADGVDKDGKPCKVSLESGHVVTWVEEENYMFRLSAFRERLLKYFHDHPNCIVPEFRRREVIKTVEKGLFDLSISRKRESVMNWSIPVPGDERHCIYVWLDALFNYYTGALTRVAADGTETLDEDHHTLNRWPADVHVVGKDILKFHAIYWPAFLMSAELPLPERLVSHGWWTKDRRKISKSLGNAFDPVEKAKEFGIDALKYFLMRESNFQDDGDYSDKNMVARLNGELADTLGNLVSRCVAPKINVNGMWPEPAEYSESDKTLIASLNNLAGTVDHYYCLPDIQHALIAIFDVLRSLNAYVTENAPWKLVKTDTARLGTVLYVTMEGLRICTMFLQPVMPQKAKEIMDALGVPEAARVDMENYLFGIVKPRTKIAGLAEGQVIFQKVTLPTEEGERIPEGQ

A: 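Assay on Mycobacterium tuberculosis, filed only as a heat shock assay from Cornell; the read-out is not stated. The concentration is filed as 10 mM, unlikely as a test dose, so the dose is not known. Direction is inferred from retests: higher values go with stronger inhibition. About 69,000 compounds were tested under these conditions; 1.4% (about 930) showed 50% or more at least once.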
B: 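Primary screen of methionyl-tRNA synthetase; the read-out is not stated. Target: Methionyl-tRNA synthetase (putative), Leishmania donovani (UniProt E9BF75). The test concentration is not given. The values are filed as inhibition. Size under these conditions: about 68,000 compounds, about 24 of them at 50% or above in at least one test.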
C: 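Whole-cell assay for inhibitors of Mycobacterium tuberculosis growth, labelled Cornell in the record; the read-out is not stated. The concentration is filed as 10 mM, unlikely as a test dose, so the dose is not known. The record gives no direction; compounds strong in two other growth screens of this library score well above the rest, so higher reads as stronger inhibition. Size under these conditions: about 53,000 compounds, about 900 of them at 50% or above in at least one test.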

| SMILES | A | B | C |
|---|---|---|---|
| `Cc1occc(=O)c1OCc1noc(C(=O)NC2CCCC2)n1` | -2.429 | 11.65 | 0.8386 |
| `Cc1nc(CN2CCC(c3ccnn3CCO)CC2)oc1C` | -19.34 | 15.06 | - |
| `CC(C)CCNC(=O)NC(C)c1nncn1C` (centres undefined) | 6.377 | 19.6 | -34.36 |
| `Cc1cc(C)n(Cc2ccc(C(=O)NCCN3CCOCC3)cc2)n1` | -1.353 | 13.27 | 14.21 |
| `O=C(O)C(F)(F)F.O=C(O)C(F)(F)F.[H][C@]12OCCC[C@]1([H])N(C(=O)c1cccc(C)n1)C[C@H]2OCc1cccnc1` | 0.3804 | - | -25.06 |
| `COCC(C)N1CCc2onc(-c3ccc(F)c(F)c3)c2C1` (centres undefined) | 0.07997 | 7.035 | 22.98 |
| `O=C(c1cccnc1)N1CCN2C[C@H](OCc3ccccc3)C[C@H]2C1` | - | 4.975 | - |
| `Cc1ccc(OCCN(C)C(C)c2cccc(S(N)(=O)=O)c2)cc1` (centres undefined) | -22.37 | 22.95 | - |
| `Cc1cc(CN(C2CC2)C(C)C(C)C)on1` (centres undefined) | 9.016 | 13.4 | - |
| `CCCc1cc(NCc2cc(C)on2)n2nccc2n1` | 23.72 | 6.87 | -36.25 |
| `Cc1ccc(C(=O)N2C[C@H]3CC[C@@H]2CN(S(=O)(=O)N(C)C)C3)c(O)c1` | - | 6.452 | - |
| `[H][C@@]12C[C@H](C(=O)N(C)C)[C@@]([H])(CN(C(=O)NCc3ccccc3C)C1)O2` | -0.6911 | - | -26.33 |
| `CCc1ccc(O)c(C(=O)NC2CCN(C(=O)OC)CC2)c1` | 27.19 | 13.5 | 12.07 |
| `CCCn1[nH]cc/c1=N\C(=O)CN1CCc2c(nc(C(C)C)n2C)C1` | -3.416 | 3.472 | - |
| `COc1ccc(NC(=O)CCN2CC=C(c3cnn(C)c3)CC2)cc1Cl` | 17.54 | 10.92 | - |
| `COCCCNc1cc(C)nn2cnnc12` | -8.879 | 15.83 | - |
| `Cc1cccc(C(=O)N2CCc3ncnc(C4CCOC4)c3CC2)n1.O=C(O)C(F)(F)F` (centres undefined) | -24.73 | - | 0.7772 |
| `CCc1noc(CN2CCC(c3ccnn3CCO)CC2)n1` | -10.1 | 15.66 | - |
| `O[C@@H]1Cc2ccccc2[C@@H]1Nc1ncccc1F` | -21.5 | 10.88 | 19.63 |
| `CN(Cc1ccc2c(c1)OCO2)C(=O)c1ccc(C2CCCNC2)cc1` (centres undefined) | 0.1308 | 12.79 | 14.52 |
| `Cc1cc(N2CCN(C(=O)CCc3scnc3C)CC2)nc(N)n1` | -24.89 | 3.237 | 2.066 |
| `O=C(O)C(F)(F)F.O=C1COC2(CCN(C(=O)c3ccco3)CC2)CN1Cc1cccnc1` | -2.228 | - | 14.08 |
| `CCC(=O)N1CCC2(CC1)CC(N1CCOCC1)c1cc(C)ccc12.O=C(O)C(F)(F)F` (centres undefined) | 3.615 | - | 5.649 |
| `[H][C@@]12C[C@H](C(=O)Nc3ccccc3)[C@@]([H])(CN(Cc3cccnc3)C1)O2` | -0.2627 | - | 15.91 |
| `COCCN1C[C@@H](C)[C@@]2(COCCN(C(=O)c3cccc(C)n3)C2)C1.O=C(O)C(F)(F)F.O=C(O)C(F)(F)F` | -17.83 | - | 12.53 |
| `[H][C@@]12CN(c3ccc(Cl)cn3)C[C@]1([H])N(CCc1ccc(F)cc1)C(=O)O2` | 12.31 | - | -21.15 |
| `CCC(CO)N(Cc1ccccn1)C(=O)c1ccc(C)c(Cl)c1` (centres undefined) | -24.38 | 14.53 | -0.5763 |
| `COCC1CC2(CCN(Cc3nccs3)CC2)CN1Cc1ccccn1.O=C(O)C(F)(F)F.O=C(O)C(F)(F)F.O=C(O)C(F)(F)F` (centres undefined) | 24.63 | - | -20.07 |
| `CN(Cc1cc(C2CC2)[nH]n1)C(=O)c1cnn2ccn(C)c12` | 20.7 | 17.72 | -51.46 |
| `CN(C)C(=O)CN1CCC2(C1)CN(CC1CCOC1)C2` (centres undefined) | - | -3.806 | - |
| `CCc1nc2n(n1)CC(NCc1ccccc1OCC(=O)NC)CC2` (centres undefined) | -0.8975 | 12.4 | 13.7 |
| `CC(C)N(C)Cc1cn2c(n1)CN(C(=O)Cc1ccccc1)CC2.O=C(O)C(F)(F)F` | -8.481 | - | 8.087 |
| `COC(C)(C)C(=O)N1CCC(c2cc(CN(C)C)n(C)n2)CC1` | - | 16.67 | - |
| `CC(C(=O)NCc1ccc2c(c1)OCCO2)n1cncn1` (centres undefined) | 4.942 | 1.905 | -34.65 |
| `CN1CCCCC1c1nc(Cc2cccc(F)c2)no1` (centres undefined) | -18.17 | 9.589 | 17.5 |
| `O=C(c1cc(-n2cccn2)ccn1)N(CC(F)(F)F)C1CCCC1` | -5.167 | 10.59 | 17.65 |
| `CCN1CCN(C(=O)c2ccn(C)c(=O)c2)CC1` | -9.769 | 1.389 | - |
| `O=C(Cc1ccc2c(c1)CCO2)N1CCN(c2nccs2)CC1` | -12.41 | 24.58 | - |
| `Cc1ccc(F)c(C(=O)Nc2cccc(CCN3CCCC3)c2)c1` | 17.09 | 19.37 | 30.41 |
| `Cc1cc(C(=O)N2CCC3(CCCN(CC4CC4)C3=O)C2)c(C)n1C` (centres undefined) | 48.78 | 22.5 | 14.64 |
| `c1ccc(-c2ccc(CN3CCOC(Cn4cncn4)C3)cc2)cc1` (centres undefined) | -20.19 | 6.479 | - |
| `CSCc1noc(Cn2ccc3ccccc3c2=O)n1` | -1.586 | 6.863 | 10.59 |
| `COCc1nc(C(=O)NS(=O)(=O)c2cc(F)ccc2F)cs1` | 6.265 | 3.067 | -17.93 |
| `NC1CCN(C(=O)c2c(F)cccc2Br)CC1` | - | 4.467 | - |
| `Cc1cc(C)cc(OCCCn2nc3ccccn3c2=O)c1` | -1.848 | 15.01 | 34.72 |
| `CN(Cc1nncn1C)c1nccc(C2CCCC2)n1` | -28.65 | -4.735 | -45.64 |
| `CCOc1ccc(-c2c(-c3ccccc3)ncn2C2CCNC2)cn1` (centres undefined) | 30.07 | 4.632 | -12.2 |
| `CCCc1noc(CCC(=O)N2CCCCC2Cn2cc(C)cn2)n1` (centres undefined) | -23.84 | 9.492 | - |
| `Cc1cccc(C(C(=O)NCc2nc(-c3ncccn3)no2)N(C)C)c1` (centres undefined) | -16.12 | 7.018 | 15.4 |
| `O=C1CC(N(C(=O)CCc2cc(F)ccc2F)C2CC2)C(=O)N1` (centres undefined) | -0.646 | 20.25 | 16.09 |
| `CCOc1ccccc1OC1CCN(C(=O)c2[nH]nc(C)c2Br)CC1` | -12.87 | 27.37 | - |
| `Cc1ccc(S(=O)(=O)NCCc2ccoc2)s1` | 39.93 | 16.21 | 103.3 |
| `Nc1nc2c(c3c1C(=O)NC3=O)CCCC2` | -9.395 | 1.133 | -17.27 |
| `O=C1CC2(CCN(Cc3cccnc3)C2)CN1c1cccc(F)c1` (centres undefined) | - | 11.34 | - |
| `Cc1noc(C)c1CN1CCO[C@H]2[C@H](Oc3ccccn3)CC[C@@H]21` | - | 22.96 | - |
| `CC(C)(C)Nc1c(C2CCN(C(=O)C3CC3)CC2)nc2ccccn12` | -6.745 | 12.19 | -7.643 |

Repeated from the top, 6 entries:

SMILES	A	B	C
Cc1occc(=O)c1OCc1noc(C(=O)NC2CCCC2)n1	-2.429	11.65	0.8386
Cc1nc(CN2CCC(c3ccnn3CCO)CC2)oc1C	-19.34	15.06	-
CC(C)CCNC(=O)NC(C)c1nncn1C (centres undefined)	6.377	19.6	-34.36
Cc1cc(C)n(Cc2ccc(C(=O)NCCN3CCOCC3)cc2)n1	-1.353	13.27	14.21
O=C(O)C(F)(F)F.O=C(O)C(F)(F)F.[H][C@]12OCCC[C@]1([H])N(C(=O)c1cccc(C)n1)C[C@H]2OCc1cccnc1	0.3804	-	-25.06
COCC(C)N1CCc2onc(-c3ccc(F)c(F)c3)c2C1 (centres undefined)	0.07997	7.035	22.98

Source: ChEMBL document CHEMBL3988442, “University of Dundee, Small-Polar-MMV Screening Library” (2021).